These results are taken from article PMC7819943, “Rice protein-binding microarrays: a tool to detect cis-acting elements near promoter regions in rice”.

This is one part of the list.

The assay addresses T1, OsSMF1 (Oryza sativa, UniProt Q6ZLB0 1-436).
T1 sequence: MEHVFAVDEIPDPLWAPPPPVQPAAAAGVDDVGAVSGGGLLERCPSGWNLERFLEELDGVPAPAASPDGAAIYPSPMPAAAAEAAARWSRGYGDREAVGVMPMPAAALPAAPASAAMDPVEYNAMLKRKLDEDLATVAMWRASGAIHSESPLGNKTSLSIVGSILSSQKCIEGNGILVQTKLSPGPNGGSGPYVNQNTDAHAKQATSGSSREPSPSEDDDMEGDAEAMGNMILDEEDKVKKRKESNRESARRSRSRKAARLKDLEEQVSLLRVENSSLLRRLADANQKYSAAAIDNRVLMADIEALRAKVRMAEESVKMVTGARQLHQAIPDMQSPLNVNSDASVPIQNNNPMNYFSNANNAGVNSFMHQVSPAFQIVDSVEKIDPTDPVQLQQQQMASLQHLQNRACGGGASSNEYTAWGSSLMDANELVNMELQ
As to the kind of experiment: protein-binding microarray (RPBM); PBS, 2% BSA, 51.3 ng/ul salmon testes DNA, 50 uM zinc acetate, 200 nM TF, 25 C, 1 h; high values mean tight binding. The conditions noted are these: protein: recombinant; tags: N-terminal polyhistidine and DsRed monomer fusion (pET32a); chain copies: 2; label: CyDye5-dUTP incorporated in the synthesized complementary strand; 3' TTTTT single-stranded linker to array surface; dsDNA, one strand shown. Summed up: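 The binding signal for each feature is its fluorescence intensity in arbitrary units. An Axon 4000B scanner was used to read a custom Agilent array that had been made double-stranded with Cy5-dUTP primer extension, blocked with 2% BSA, incubated at 25 °C for 1 h with 200 nM protein in PBS, 2% BSA, salmon testes DNA and 50 µM zinc acetate, and washed. The protein was an N-terminal polyhistidine–DsRed transcription factor fusion from E. coli BL21-CodonPlus, purified on Ni–NTA.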
With “TTACCTTTCTCAAGCTAGACACCATAATCTCTGAATTTAGCGGAGTCACCTAGTGCAG”, the binding signal was 14700 fluorescence intensity (a.u.). Turning to “TGATATGAAAACTCGTGCCAACTCAGCAAAATATTGTAATCGGAGTCACCTAGTGCAG”, the binding signal is 6920 fluorescence intensity (a.u.). The result for “GCTTTTCCTGTCAATGTTTGTTTGTGTAATGTTGTTATACCGGAGTCACCTAGTGCAG” reads 3630 fluorescence intensity (a.u.); that for “AATAGGTATCGACGTGCCTTACAGGTGCACGCTGACTAGTCGGAGTCACCTAGTGCAG”, 3540 fluorescence intensity (a.u.); that for “TCTCGAGGCAAAGCCCAGTCATCGCGGCGGTCACTGACGTCGGAGTCACCTAGTGCAG”, 4220 fluorescence intensity (a.u.). Consider “TATGGCCGTGCATGCTTCGCCTTGCTTGCCCACGTCACCCCGGAGTCACCTAGTGCAG”, for which the binding signal was 22800 fluorescence intensity (a.u.). The result for “ATCCGCCACTTCGCATGCACGCCATCCTCGCCTCGCCGAGCGGAGTCACCTAGTGCAG” reads 3140 fluorescence intensity (a.u.).

Turning to “CTGCGCCATCCACGCCAAGCGCGTCACCATCATGCCCAAGCGGAGTCACCTAGTGCAG”, the binding signal was 6140 fluorescence intensity (a.u.).

As to “ACTACTCAGTATGTCGCGGTGCCACCTCACACGGTGACACCGGAGTCACCTAGTGCAG”, the binding signal is 8720 fluorescence intensity (a.u.). The result for “TTGGGCCACGCACGGCGAAACTAGTATATGATGCCAATGCCGGAGTCACCTAGTGCAG” reads 4610 fluorescence intensity (a.u.); that for “AAGGATGGGTACGAGGAGGTAGTAAACGTGGACATTTCATCGGAGTCACCTAGTGCAG”, 4250 fluorescence intensity (a.u.).

As for “TAAGATTTGGATCTGTCACTCAGCTGCTGCCATCAGATGGCGGAGTCACCTAGTGCAG”, the binding signal is 5230 fluorescence intensity (a.u.). Regarding “TTTCTCCCCATCGAGATTCGCGTGGCCTTGTGGTCACCGCCGGAGTCACCTAGTGCAG”, the binding signal is 3400 fluorescence intensity (a.u.).

With “ACAAACAATGTATACGTGTACTCGAGTGGGCGTACCTGGACGGAGTCACCTAGTGCAG”, the binding signal is 5600 fluorescence intensity (a.u.). To “CTTCATGTAATCATGTCATGCCTTCAAATGCAGCTGGGCACGGAGTCACCTAGTGCAG” belongs 4030 fluorescence intensity (a.u.). To “CCACCAGCTCGTGGCCGCTGCCACGTTGAACCCATAGCAACGGAGTCACCTAGTGCAG” belongs 7080 fluorescence intensity (a.u.); to “TACTACAAACCACATCACCCCTCCTTCTAAGCAGAACATGCGGAGTCACCTAGTGCAG”, 4030 fluorescence intensity (a.u.); to “CCGTGGGTATTTCCGTCATTTCGCGCCTAAATCTCACTCCCGGAGTCACCTAGTGCAG”, 3460 fluorescence intensity (a.u.). On to “TAGCAAATTTTGCCATCAGAATATGACACATCACCGAGACCGGAGTCACCTAGTGCAG”, for which the binding signal is 10700 fluorescence intensity (a.u.). To “CTGTTGATAGAGTTTAGGTGTATCCTCAACCGTGTACACACGGAGTCACCTAGTGCAG” belongs 3330 fluorescence intensity (a.u.). To “GCAAAATAGAGCGGTCTATTAGCACATGATTAATTAAATACGGAGTCACCTAGTGCAG” belongs 24400 fluorescence intensity (a.u.); to “TATCGACCCCTTCAACTATTAAAACCGTGTAAAATTGACACGGAGTCACCTAGTGCAG”, 3230 fluorescence intensity (a.u.); to “TATCAGCGCCACCAGAAAACGAAAAGGACACGTGTACTACCGGAGTCACCTAGTGCAG”, 10400 fluorescence intensity (a.u.). The result for “TTTCACTGACACATATGGTTCGAGTCTCACAGTGTACTCTCGGAGTCACCTAGTGCAG” reads 4170 fluorescence intensity (a.u.); that for “GGCATGCCACATCAACGCCACGTAGGATTCTAAAGGGGTTCGGAGTCACCTAGTGCAG”, 18000 fluorescence intensity (a.u.); that for “GAAGTCCAGTTTCCGTATAGGGCATGGTATGTGGTGGGTCCGGAGTCACCTAGTGCAG”, 3170 fluorescence intensity (a.u.). For “CGCCGCGGCGTCGGAGCCGTACAGGTGGCTCCTCAGGGTGCGGAGTCACCTAGTGCAG”, the binding signal was 3220 fluorescence intensity (a.u.). Regarding “TGGTATATGTACATGCTTAAATAATGTGAAAATGACGTGGCGGAGTCACCTAGTGCAG”, the binding signal was 20800 fluorescence intensity (a.u.). To “TTGATGTTAGCCTAGTCGACAACTCATCATCTAATTTGATCGGAGTCACCTAGTGCAG” belongs 5200 fluorescence intensity (a.u.); to “TGGAAAAGGTTTGATTTTGTGTGGCATGCCTGCGCGGGCGCGGAGTCACCTAGTGCAG”, 3470 fluorescence intensity (a.u.).

Take “CGGTATTGGATTGATCAATCATCGTCACCTCGTTTTGCTTCGGAGTCACCTAGTGCAG”: the binding signal is 4840 fluorescence intensity (a.u.). The result for “CTTTGGTTTTATCTTCACTCCAGTCAATGACACCTCTACCCGGAGTCACCTAGTGCAG” reads 3900 fluorescence intensity (a.u.).

For “GTACGTCGGAAGCAACGGCAGACATGACAGCATATGGCCTCGGAGTCACCTAGTGCAG”, the binding signal was 15900 fluorescence intensity (a.u.). To “TCTTAGTGTGACAGGTCTCCCACTTCCACGTGAAAATTGCCGGAGTCACCTAGTGCAG” belongs 3240 fluorescence intensity (a.u.). To “ACTTTGACCTGTTGTATCTCGCTAAGTCATCTCGTGGGGCCGGAGTCACCTAGTGCAG” belongs 3360 fluorescence intensity (a.u.). The result for “TGGAAATTGACTCGTCACAAGCTGGACCAGACGACCGCTTCGGAGTCACCTAGTGCAG” reads 3560 fluorescence intensity (a.u.).

In the case of “GCTGGGGAAGCGTCCCTCTCTCCGCCGGCCGATGTGGATGCGGAGTCACCTAGTGCAG”, the binding signal is 3460 fluorescence intensity (a.u.).

Take “GTGCTCTGCCTGACGAACTTTTGCACCATGTCATGACATTCGGAGTCACCTAGTGCAG”: the binding signal was 3310 fluorescence intensity (a.u.).

On to “TATTAATTTGCACTGTCTCCTGATGTTTGGTTTAATTTGTCGGAGTCACCTAGTGCAG”, for which the binding signal was 3150 fluorescence intensity (a.u.). The result for “ATCGGCTTTCACCCTTACACCGTTACACGTTGCACTGCACCGGAGTCACCTAGTGCAG” reads 6970 fluorescence intensity (a.u.); that for “TAATAATACATGATAATTAATTAGCTACGTCCTTGTCAAACGGAGTCACCTAGTGCAG”, 5260 fluorescence intensity (a.u.); that for “TCCTCTCATCCTATTTTCTGTGTGCATTGTGTCTGTGACACGGAGTCACCTAGTGCAG”, 3190 fluorescence intensity (a.u.).
